For at least one compound, name, drawing or mass did not settle the structure.
Test system: bone marrow cells of mice
Assay: Side effects of gamma-radiation and cis-platinum on bone marrow cells of mice
Assay type: in vivo
Source text: Thus, it appears that when PUFAs and conventional anti-cancer drugs/agents are given together they not only act to potentiate the cytotoxic action of each other on the tumor cells and thus, produce synergistic and/or additive action on their ability to eliminate the tumor cells but it will also lead to elimination, reduction, or amelioration of the side effects of conventional anti-cancer agents. Since, PUFAs are able to potentiate the cytotoxic action(s) of conventional anti-cancer drugs (agents) and cytokines; it is also possible that this will lead to a significant reduction in the doses of these latter agents without compromising the ultimate benefit namely, elimination of tumor cells or the tumor. Accordingly, certain embodiments are directed to methods comprising administering a PUFA (e.g., GLA) containing compositions as described herein and a conventional anti-cancer drug to a subject in need thereof.

| SMILES | side effects of gamma-radiation and cis-platinum to bone marrow cells |
| --- | --- |
| CC/C=C\C/C=C\C/C=C\C/C=C\C/C=C\C/C=C\CCC(=O)O [DHA, docosahexaenoic acid] | prevent or ameliorate the side effects |
| CC/C=C\C/C=C\C/C=C\C/C=C\C/C=C\CCCC(=O)O [EPA, eicosapentaenoic acid] | prevent or ameliorate the side effects |

From patent publication US20160354333A1, “COMPOSITIONS OF POLYUNSATURATED FATTY ACIDS AND METHODS OF USE THEREOF” (UND Life Sciences, LLC, priority 2015, published 2016)
